Earlier results, collected in patent publication US8436020B2, “Processes for the preparation of piperidinic derivatives and pharmaceutic compositions containing the same” (priority 2004, dated 2013).
At least one structure is not confirmed: it was looked up by name or label, or the drawing left a doubt.

Protein sequences, listed by entry. Tags and fused reporters are not part of them. Residues count along the entry.
UniProt P22303, 32-614: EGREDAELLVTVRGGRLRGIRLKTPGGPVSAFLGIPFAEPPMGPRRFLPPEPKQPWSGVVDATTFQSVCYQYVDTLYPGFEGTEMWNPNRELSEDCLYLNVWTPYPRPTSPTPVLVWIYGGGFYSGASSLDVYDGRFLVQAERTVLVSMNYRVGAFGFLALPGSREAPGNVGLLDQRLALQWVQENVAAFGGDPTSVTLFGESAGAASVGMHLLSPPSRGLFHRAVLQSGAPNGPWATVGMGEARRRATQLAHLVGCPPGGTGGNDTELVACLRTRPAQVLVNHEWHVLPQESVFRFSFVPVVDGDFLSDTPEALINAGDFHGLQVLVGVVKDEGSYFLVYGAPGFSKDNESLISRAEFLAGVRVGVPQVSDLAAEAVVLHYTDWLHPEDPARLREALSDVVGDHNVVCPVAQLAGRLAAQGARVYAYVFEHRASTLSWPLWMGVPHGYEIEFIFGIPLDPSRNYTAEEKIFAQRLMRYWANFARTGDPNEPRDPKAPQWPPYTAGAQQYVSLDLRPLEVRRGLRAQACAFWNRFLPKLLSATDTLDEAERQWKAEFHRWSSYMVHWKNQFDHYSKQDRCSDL

Target: AChE (Homo sapiens, UniProt P22303)
Conditions: in vitro tests; cited from earlier work

SMILES: CN1CC[C@@]23C=C[C@H](O)C[C@@H]2Oc2c(O)ccc(c23)C1 [sanguinine, 9-O-desmethylgalanthamine]
- Activity relative to galanthamine: 10 times
